Source: PubChem BioAssay AID1439 (NMMLSC, 2008)
The campaign covered roughly 220,000 compounds. About 770 (0.35%) were called active. The shares of active, inactive and inconclusive entries below differ from those in the screen. Cut-off read from the data, not from the text of the source: active = binding response below about 49% or above about 150%; inconclusive = no clear call, values can overlap the other calls; inactive = in between.

Sequences of proteins named here, by UniProt entry; tags and fusion partners are left off.
UniProt P09471, whole entry, looked up: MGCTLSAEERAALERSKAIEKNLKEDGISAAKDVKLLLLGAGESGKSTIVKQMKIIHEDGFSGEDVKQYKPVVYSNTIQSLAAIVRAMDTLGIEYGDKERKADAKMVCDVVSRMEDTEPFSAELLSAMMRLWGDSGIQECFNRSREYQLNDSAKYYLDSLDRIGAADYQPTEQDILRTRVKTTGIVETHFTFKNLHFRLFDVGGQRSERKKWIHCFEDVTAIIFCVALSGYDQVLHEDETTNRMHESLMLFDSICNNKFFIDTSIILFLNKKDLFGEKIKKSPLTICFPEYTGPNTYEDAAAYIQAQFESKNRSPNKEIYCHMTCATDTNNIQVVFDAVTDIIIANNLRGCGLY

target: Guanine nucleotide-binding protein G(o) subunit alpha (Homo sapiens) (UniProt P09471); experiment: RGS7-Galphao binding modulators, primary screen, biochemical, multiplexed bead flow cytometry (AID 1439); conditions: at 10 µM, actives lie on both sides;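 note: fluorescent Galphao held in activated GDP-AlF4 state binding bead-coupled RGS7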

| Structure (SMILES) | binding response (% of control) |
| --- | --- |
| O=C(Nc1ccc2ncccc2c1)c1cc(Cl)ccc1Cl | inactive: 96.8% |
| Cc1ccccc1NC(=O)CS(=O)(=O)c1cn(CC(=O)N2CCOCC2)c2ccccc12 | inconclusive: 118% |
| Cc1c(NC(=S)N/C(=N/S(=O)(=O)c2ccc(Cl)cc2)c2ccccc2)c(=O)n(-c2ccccc2)n1C | inconclusive: 77.7% |
| Cc1ccc(S(=O)(=O)n2cc(C=O)c3ccccc32)cc1 | inconclusive: 97.2% |
| Cc1ccc(S(=O)(=O)Nc2ccc(O)c3ncccc23)cc1 | inconclusive: 65% |
| O=C(NCc1ccco1)/C(=C\C=C\c1ccccc1)NC(=O)c1ccco1 | inconclusive: 73.2% |
| CC(=O)N1CCN(C(=S)NC(=O)C23CC4CC(CC(C4)C2)C3)CC1 | inconclusive: 115% |
| CCOC(=O)C1CCCN(C(=O)Nc2c(-c3ccccc3)noc2C)C1 (stereo not drawn) | inconclusive: 98% |
| COc1cc(C(=O)Nc2nc3ccccc3[nH]2)ccc1OC(F)F | inconclusive: 132% |
| CCOc1ccc(N2C(=O)CNC2=S)cc1 | inconclusive: 101% |
| CCOc1ccccc1NC(=O)Cc1coc2ccc(C)cc12 | inconclusive: 105% |
| COc1cccc(N2CCN(C(=O)Nc3ccccc3Cl)CC2)c1 | inconclusive: 111% |
| CC(C)n1cnc2c(=S)nc[nH]c21 | inconclusive: 97.9% |
| CCCN(CCC)S(=O)(=O)c1ccc(NS(=O)(=O)c2ccc(F)cc2)cc1 | inactive: 110% |
| CN(C)c1ccc(P(=O)(Nc2cccc(C(F)(F)F)c2)N2CCOCC2)c(NC(=O)c2cccs2)c1 (stereo not drawn) | inactive: 97.9% |
| O=C(NCc1ccccn1)C(C(=O)c1ccc(F)cc1)n1ccccc1=O (stereo not drawn) | inactive: 110% |
| Cc1[nH]c2ccccc2c1C(=O)CSc1nccc(=O)[nH]1 | inconclusive: 70.8% |
| COc1cc([N+](=O)[O-])c(OC)cc1SCc1n[nH]c(=S)n1-c1ccc(C)cc1 | inconclusive: 125% |
| O=C(Nc1ccccc1)c1ncoc1-c1ccc(Cl)cc1 | inconclusive: 50.2% |
| CCOc1ccccc1/C=C(/NC(=O)c1ccccc1)C(=O)N(CC)CC | inactive: 96.5% |
| CCN(CC(=O)Nc1cc(Cl)ccc1OC)CC(=O)NC1CCS(=O)(=O)C1 (stereo not drawn) | inconclusive: 126% |
| Cc1cc(C)cc(N(C(=O)c2csnn2)C(C(=O)NC(C)(C)C)c2ccncc2)c1 (stereo not drawn) | inconclusive: 97.2% |
| O=C(CN1CCCCC1)Nc1ccccc1-c1ccccc1 | inactive: 125% |
| Cc1ccc2nc(SCC3CCCCO3)[nH]c2c1 (stereo not drawn) | inconclusive: 124% |

| Structure (SMILES) | binding response (% of control) |
| --- | --- |
| CCN(CC(=O)NCc1cccs1)c1ccc(S(=O)(=O)N2CCN(C)CC2)cn1 | inconclusive: 72.6% |
| CCCCOP(=O)(c1ccc(N(C)C)cc1)C(O)c1cc(OC)c(OC)c(OC)c1 (stereo not drawn) | inconclusive: 70.9% |
| Cn1nc([N+](=O)[O-])nc1Sc1nnnn1-c1cccc(C(=O)O)c1 | inconclusive: 117% |
| CC(=O)c1ccc(NC(=O)C(C)N(C)CC(=O)Nc2ccccc2Cl)cc1 (stereo not drawn) | inactive: 98.2% |
| COc1ccc(/C=N/NC(=O)c2sc(C)nc2C)cc1 | inconclusive: 98.9% |
| C#CCOCCOCCOCCNc1nc(N2CCN(C(=O)C([C@@H](C)CC)n3cc(C(N)CC(C)C)nn3)CC2)nc(N2CCN(C(=O)[C@H](CCC(=O)O)n3cc(C(N)CC(C)C)nn3)CC2)n1 (stereo partly drawn) | inactive: 97.7% |
| O=C(CSc1nnc(CCCO)n1-c1ccccc1)NCCc1ccccc1 | active: 15.6% |
| O=C(CN(CCO)c1ccccc1)Nc1cccc(S(=O)(=O)N2CCCC2)c1 | inconclusive: 94% |
| NC(=O)CNC(=O)c1cccc(Cl)c1 | inconclusive: 112% |
| O=C(/C=C/c1ccccc1)NCC1(c2ccccc2)CCOCC1 | inconclusive: 113% |
| FC(F)(F)c1cnc2c(-c3ccccc3)n[nH]c2c1 | inactive: 102% |
| COC(=O)c1ccc(NC(=O)C(OC)c2ccccc2)cc1 (stereo not drawn) | inconclusive: 71.3% |
| CCCCCCCCNC(=O)c1ccc(C)cc1 | inconclusive: 75.2% |
| Cc1onc(-c2c(F)cccc2Cl)c1C(=O)Nc1ccccc1N1CCOCC1 | inconclusive: 90.5% |
| Cc1cccc(NC(=O)c2nc[nH]c2C(=O)NCC(=O)OCc2ccccc2)c1 | inconclusive: 166% |
| O=c1cc(-c2cccc(Cl)c2)oc2cccc(O)c12 | inconclusive: 112% |
| Cc1ccc2c(c1)C(=O)CC(O)(C(F)F)O2 (stereo not drawn) | inconclusive: 96.3% |
| CCOC(CC(=O)NNC(=O)c1c(-c2c(Cl)cccc2Cl)noc1C)OCC | inconclusive: 89% |
| CC1SC(c2ccc(F)cc2)NC1=O (stereo not drawn) | inactive: 102% |
| CSc1ccc(/C=C/C(=O)NC(=O)c2ccccc2O)cc1 | inactive: 93.4% |
| CC(C)c1ccc(NC(=O)CCCN2C(=S)NC(C)(C)CC2C)cc1 (stereo not drawn) | inconclusive: 101% |
| Cc1ccc(S(=O)(=O)CC(=O)c2ccc3c(c2)OCCO3)cc1 | inconclusive: 119% |
| CCN1CCN(c2nc3ccccc3n3cnnc23)CC1 | inconclusive: 105% |
| Cc1ccc(CN2CCN(Cc3cnc(N4CCOCC4)s3)CC2CCO)cc1 (stereo not drawn) | inactive: 101% |

Grouped by structure: those above with a nitro group on carbon (2)

| Structure (SMILES) | binding response (% of control) |
| --- | --- |
| COc1cc([N+](=O)[O-])c(OC)cc1SCc1n[nH]c(=S)n1-c1ccc(C)cc1 | inconclusive: 125% |
| Cn1nc([N+](=O)[O-])nc1Sc1nnnn1-c1cccc(C(=O)O)c1 | inconclusive: 117% |

(listing goes on)

| Structure (SMILES) | binding response (% of control) |
| --- | --- |
| CC(C)OC(=O)CSc1nc(Cc2ccccc2)nc2ccccc12 | inactive: 109% |
| CC(=O)NCCNS(=O)(=O)c1ccc(C)c([N+](=O)[O-])c1 | inactive: 118% |
| O=C(Cn1nc(-c2ccccc2)nc1-c1ccccc1)N1CCOCC1 | inactive: 111% |
| S=C(NCCc1ccccn1)NC1CC2CCC1C2 (stereo not drawn) | inconclusive: 76.7% |
| O=C(O)C1=NN(c2ccccc2)C(=O)C1 | inconclusive: 85.7% |
| CSc1ccc(Cl)c(C(=O)Nc2ccc(C)cn2)c1 | inconclusive: 82.5% |
| O=C(N/N=C/c1ccc(Br)s1)c1cccs1 | inconclusive: 101% |
| Cc1nccnc1Sc1ccccc1 | inconclusive: 111% |
| C#CCSc1ncc(-c2ccccc2)cn1 | inactive: 100% |
| O=C(NC1=NCCS1)c1ccccc1OCc1ccc(F)cc1 | inactive: 102% |
| NS(=O)(=O)c1ccc(NC(=O)COc2ncnc3sccc23)cc1 | inconclusive: 118% |
| CC(=O)c1ccc(NC(=S)N2CCC(Cc3ccccc3)CC2)cc1 | inconclusive: 31% |
| O=C(/C=C/c1ccc(Cl)cc1)Nc1ccc(N2CCOCC2)cc1 | inconclusive: 105% |
| C/C(=C\c1cccs1)C(=O)c1c(C)cc(C)[nH]c1=O | inconclusive: 99.6% |
| Cc1ccccc1OCCn1cc(C(=O)C(=O)N2CCOCC2)c2ccccc21 | inconclusive: 107% |
| Cc1cccc(C)c1-n1c(C)nn(Cc2ccc([N+](=O)[O-])cc2)c1=O | inactive: 96.3% |
| CCN1C(=O)[C@@H]2[C@H](C1=O)[C@@H]1C[C@H]3C(=O)N(CC)C(=O)[C@H]3[C@@H]3C1=C(C(=O)N1C(=O)OC(=NCC4CC4)[C@]31C)[C@@H]2C | inconclusive: 101% |
| CC1=CC(C/C(C)=C/COc2ccc3ccc(=O)oc3c2)OC1=O (stereo not drawn) | inconclusive: 66.8% |
| O=C(CCC(=O)Nc1ccc(F)cc1)N/N=C/c1ccccc1O | inconclusive: 91.9% |
| CCCCc1ccc(NC(=O)c2cnccn2)cc1 | inactive: 101% |
| O=C(NC1CC1)c1ccc(C2SCC(=O)N2Cc2ccccc2)cc1 (stereo not drawn) | inactive: 92.4% |
| COC(=O)c1ccc(S(=O)(=O)N2CCN(C(c3ccccc3)c3ccccc3)CC2)n1C | inconclusive: 45.1% |
| FC(F)(F)Oc1ccc(-c2cn3cccnc3n2)cc1 | inconclusive: 183% |
| N#CCc1c(C#N)c(N)nc(Nc2ccccc2)c1C#N | inconclusive: 116% |

| Structure (SMILES) | binding response (% of control) |
| --- | --- |
| CC1(C)C2CCC1(C)C(OCC[N+](C)(C)CC(=O)OC1CCCCC1)C2 (stereo not drawn) | inactive: 118% |
| C=CCCN(C1CCCC1)S(=O)(=O)c1ccccc1Br | inconclusive: 82.5% |
| N[C@@H](CO)c1cn([C@@H](Cc2cc3ccccc3[nH]2)C(=O)N2CCNCC2)nn1 | inconclusive: 103% |
| CCOC(=O)Cn1cc(/C=N/NC(=O)CC#N)c2ccccc21 | inconclusive: 848% |
| COc1cccc(N/C(SCc2ccccc2F)=C(/C#N)C(=O)NCc2cccs2)c1 | inactive: 104% |
| CCNS(=O)(=O)c1ccc(NC(=O)CC(C)c2ccccc2)cc1 (stereo not drawn) | inactive: 102% |
| Cc1cc(NC(=O)C2(c3ccccc3)CCCC2)no1 | inactive: 135% |
| Cc1nn(C)c(C(=O)Nc2ccc(Cl)c([N+](=O)[O-])c2)c1Cl | inactive: 101% |
| Cc1ccc2cc([N+](=O)[O-])ccc2n1 | inconclusive: 79.3% |
| CCCCN(CCCC)c1nc(-c2ccncc2)nc2ccccc12 | inconclusive: 117% |
| CN1CCC(NC(=O)c2ccncc2)CC1 | inconclusive: 99.7% |
| Cc1ccc(N=Nc2c(O)[nH]c3ccc(F)cc23)cc1 | inconclusive: 36% |
| Cn1c(SCCC#N)nnc1-c1ccccc1F | inconclusive: 119% |
| CCOC(=O)c1ccc(S(=O)(=O)Nc2cc(C(=O)O)ccc2Cl)cc1 | inconclusive: 125% |
| C/C(=N\OC(=O)c1ccccc1)c1c(C)nc2cc(C)ccn12 | inconclusive: 106% |
| C=CCn1c(Cc2ccccc2)n[nH]c1=S | inactive: 93.4% |
| Cc1ccc(C(=O)NCc2nnc(SCC(=O)NC(C)c3ccccc3)n2C)cc1 (stereo not drawn) | inactive: 92.4% |
| CSCCOC(=O)C1=C(C)Nc2ccc(C)cc2S1 | inactive: 105% |
| CC(=O)C1C(c2ccc([N+](=O)[O-])cc2)C2C(C)=NN=C2CC1(C)O (stereo not drawn) | inconclusive: 97.6% |
| COc1cc2c(cc1NC(=O)COC(=O)C(CCSC)NC(=O)c1ccccc1Cl)oc1ccccc12 (stereo not drawn) | inactive: 101% |
| COCCCNC(=O)Cn1nc(-c2ccccc2OC)ccc1=O | inactive: 97.3% |

Nothing new here: an excerpt of the list.

| Structure (SMILES) | binding response (% of control) |
| --- | --- |
| CC(=O)C1C(c2ccc([N+](=O)[O-])cc2)C2C(C)=NN=C2CC1(C)O (stereo not drawn) | inconclusive: 97.6% |
| COc1cc2c(cc1NC(=O)COC(=O)C(CCSC)NC(=O)c1ccccc1Cl)oc1ccccc12 (stereo not drawn) | inactive: 101% |
